Data from paper doi:10.1101/2025.10.31.685813.

Amino acid sequences for entries named in this document (tags omitted).
UniProt Q12840: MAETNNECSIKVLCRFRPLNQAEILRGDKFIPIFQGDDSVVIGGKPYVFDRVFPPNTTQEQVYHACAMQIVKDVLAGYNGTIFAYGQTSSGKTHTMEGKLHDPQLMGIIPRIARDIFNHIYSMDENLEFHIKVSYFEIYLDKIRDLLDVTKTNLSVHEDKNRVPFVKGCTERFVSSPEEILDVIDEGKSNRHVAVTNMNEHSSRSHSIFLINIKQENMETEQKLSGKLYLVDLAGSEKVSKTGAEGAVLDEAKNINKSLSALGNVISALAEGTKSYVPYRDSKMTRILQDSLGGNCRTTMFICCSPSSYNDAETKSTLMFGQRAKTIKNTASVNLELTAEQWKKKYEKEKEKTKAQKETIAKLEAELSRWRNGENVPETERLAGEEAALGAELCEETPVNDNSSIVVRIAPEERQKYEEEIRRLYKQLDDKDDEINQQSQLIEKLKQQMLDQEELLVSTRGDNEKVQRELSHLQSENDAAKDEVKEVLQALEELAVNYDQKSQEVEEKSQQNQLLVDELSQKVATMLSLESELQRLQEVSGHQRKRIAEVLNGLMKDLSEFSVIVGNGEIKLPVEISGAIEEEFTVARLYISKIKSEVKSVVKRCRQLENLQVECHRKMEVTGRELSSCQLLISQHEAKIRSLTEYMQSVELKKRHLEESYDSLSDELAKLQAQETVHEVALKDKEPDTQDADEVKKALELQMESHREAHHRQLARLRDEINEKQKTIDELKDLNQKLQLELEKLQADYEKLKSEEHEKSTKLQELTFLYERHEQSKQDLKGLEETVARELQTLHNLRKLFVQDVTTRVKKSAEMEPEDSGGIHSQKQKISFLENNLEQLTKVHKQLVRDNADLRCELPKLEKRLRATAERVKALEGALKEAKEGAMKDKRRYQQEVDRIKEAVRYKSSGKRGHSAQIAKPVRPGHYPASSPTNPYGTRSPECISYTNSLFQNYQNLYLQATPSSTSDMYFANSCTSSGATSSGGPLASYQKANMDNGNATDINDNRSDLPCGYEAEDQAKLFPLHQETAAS
UniProt O75821: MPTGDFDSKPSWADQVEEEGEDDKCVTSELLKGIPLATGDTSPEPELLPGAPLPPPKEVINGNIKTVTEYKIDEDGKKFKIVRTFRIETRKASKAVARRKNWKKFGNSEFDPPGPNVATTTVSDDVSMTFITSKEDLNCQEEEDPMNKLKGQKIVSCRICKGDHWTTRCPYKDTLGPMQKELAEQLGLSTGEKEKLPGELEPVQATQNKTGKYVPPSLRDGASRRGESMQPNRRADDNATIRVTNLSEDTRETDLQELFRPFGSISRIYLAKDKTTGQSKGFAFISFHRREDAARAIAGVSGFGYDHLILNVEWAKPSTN
UniProt O75420: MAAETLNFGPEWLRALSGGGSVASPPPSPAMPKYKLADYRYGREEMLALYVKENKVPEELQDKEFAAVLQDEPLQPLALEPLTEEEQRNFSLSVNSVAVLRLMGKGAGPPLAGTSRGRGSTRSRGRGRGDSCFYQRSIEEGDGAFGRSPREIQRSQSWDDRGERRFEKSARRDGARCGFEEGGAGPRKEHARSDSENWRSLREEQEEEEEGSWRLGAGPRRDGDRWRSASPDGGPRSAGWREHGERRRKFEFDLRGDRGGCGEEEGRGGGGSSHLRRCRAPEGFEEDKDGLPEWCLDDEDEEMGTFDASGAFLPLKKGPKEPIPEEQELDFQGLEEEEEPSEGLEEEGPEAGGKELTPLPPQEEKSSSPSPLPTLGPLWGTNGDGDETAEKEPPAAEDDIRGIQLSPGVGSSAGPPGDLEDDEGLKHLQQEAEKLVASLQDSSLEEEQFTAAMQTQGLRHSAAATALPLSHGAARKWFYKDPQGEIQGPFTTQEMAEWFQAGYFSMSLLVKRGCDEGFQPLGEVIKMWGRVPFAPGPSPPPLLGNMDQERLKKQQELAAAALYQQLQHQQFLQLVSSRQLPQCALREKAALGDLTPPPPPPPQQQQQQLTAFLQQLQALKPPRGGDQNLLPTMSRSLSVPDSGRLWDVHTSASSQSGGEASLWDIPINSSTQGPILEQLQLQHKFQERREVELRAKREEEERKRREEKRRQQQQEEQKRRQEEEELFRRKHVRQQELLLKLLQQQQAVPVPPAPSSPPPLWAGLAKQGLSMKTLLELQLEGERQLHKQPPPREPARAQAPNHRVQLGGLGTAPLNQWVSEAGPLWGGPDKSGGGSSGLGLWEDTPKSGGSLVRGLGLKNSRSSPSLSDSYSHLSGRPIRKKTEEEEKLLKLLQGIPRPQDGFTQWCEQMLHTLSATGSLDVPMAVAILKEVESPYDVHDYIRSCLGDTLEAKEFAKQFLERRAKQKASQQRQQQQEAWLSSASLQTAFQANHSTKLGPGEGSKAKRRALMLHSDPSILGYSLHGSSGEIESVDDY
UniProt Q9UPQ9: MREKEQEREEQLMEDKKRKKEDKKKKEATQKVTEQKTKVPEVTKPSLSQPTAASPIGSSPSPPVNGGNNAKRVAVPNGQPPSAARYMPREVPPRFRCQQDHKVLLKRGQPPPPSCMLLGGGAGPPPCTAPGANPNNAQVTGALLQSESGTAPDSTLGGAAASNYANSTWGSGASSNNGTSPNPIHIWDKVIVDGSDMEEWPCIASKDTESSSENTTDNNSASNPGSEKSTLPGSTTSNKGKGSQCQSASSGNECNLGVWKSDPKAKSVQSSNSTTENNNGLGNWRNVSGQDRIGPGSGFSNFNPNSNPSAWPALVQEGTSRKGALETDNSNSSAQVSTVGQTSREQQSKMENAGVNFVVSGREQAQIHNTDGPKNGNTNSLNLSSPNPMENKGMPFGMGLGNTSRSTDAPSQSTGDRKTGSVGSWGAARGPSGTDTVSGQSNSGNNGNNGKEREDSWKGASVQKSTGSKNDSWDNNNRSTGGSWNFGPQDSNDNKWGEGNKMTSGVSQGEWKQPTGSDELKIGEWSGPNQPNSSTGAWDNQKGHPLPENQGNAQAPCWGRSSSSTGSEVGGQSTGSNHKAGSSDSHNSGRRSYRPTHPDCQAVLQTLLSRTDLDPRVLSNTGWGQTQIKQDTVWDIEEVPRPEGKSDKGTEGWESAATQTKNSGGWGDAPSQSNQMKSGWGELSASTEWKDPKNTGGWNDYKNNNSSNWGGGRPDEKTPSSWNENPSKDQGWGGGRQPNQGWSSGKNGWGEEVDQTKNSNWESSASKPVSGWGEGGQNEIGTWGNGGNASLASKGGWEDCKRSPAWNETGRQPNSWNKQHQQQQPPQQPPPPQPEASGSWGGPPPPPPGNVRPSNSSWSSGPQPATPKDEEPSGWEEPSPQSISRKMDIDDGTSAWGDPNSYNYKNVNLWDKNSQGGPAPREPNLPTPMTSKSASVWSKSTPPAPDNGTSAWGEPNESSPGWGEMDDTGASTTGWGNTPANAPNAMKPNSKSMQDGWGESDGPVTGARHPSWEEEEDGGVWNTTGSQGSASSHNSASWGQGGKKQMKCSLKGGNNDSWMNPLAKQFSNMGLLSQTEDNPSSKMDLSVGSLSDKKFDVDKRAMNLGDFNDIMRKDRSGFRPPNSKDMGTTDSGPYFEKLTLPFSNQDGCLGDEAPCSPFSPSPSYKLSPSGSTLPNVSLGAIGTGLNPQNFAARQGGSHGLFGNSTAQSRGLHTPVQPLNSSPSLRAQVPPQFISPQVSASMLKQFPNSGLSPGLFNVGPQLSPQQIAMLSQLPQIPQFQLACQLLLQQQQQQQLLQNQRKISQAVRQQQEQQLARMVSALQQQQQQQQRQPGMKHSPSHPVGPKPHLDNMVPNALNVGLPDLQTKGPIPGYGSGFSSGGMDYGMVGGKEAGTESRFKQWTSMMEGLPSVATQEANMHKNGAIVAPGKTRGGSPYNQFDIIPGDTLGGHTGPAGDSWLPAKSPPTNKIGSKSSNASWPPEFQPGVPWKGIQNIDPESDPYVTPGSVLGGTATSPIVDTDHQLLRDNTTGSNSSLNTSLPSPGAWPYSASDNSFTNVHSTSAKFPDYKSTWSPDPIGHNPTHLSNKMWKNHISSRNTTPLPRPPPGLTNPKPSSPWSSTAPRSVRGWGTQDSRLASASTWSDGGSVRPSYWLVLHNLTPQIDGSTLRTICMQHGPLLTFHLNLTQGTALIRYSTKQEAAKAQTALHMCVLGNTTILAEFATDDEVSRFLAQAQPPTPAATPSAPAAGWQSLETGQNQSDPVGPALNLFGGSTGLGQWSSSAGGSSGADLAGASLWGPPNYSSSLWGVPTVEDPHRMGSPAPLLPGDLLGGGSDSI
UniProt Q92615: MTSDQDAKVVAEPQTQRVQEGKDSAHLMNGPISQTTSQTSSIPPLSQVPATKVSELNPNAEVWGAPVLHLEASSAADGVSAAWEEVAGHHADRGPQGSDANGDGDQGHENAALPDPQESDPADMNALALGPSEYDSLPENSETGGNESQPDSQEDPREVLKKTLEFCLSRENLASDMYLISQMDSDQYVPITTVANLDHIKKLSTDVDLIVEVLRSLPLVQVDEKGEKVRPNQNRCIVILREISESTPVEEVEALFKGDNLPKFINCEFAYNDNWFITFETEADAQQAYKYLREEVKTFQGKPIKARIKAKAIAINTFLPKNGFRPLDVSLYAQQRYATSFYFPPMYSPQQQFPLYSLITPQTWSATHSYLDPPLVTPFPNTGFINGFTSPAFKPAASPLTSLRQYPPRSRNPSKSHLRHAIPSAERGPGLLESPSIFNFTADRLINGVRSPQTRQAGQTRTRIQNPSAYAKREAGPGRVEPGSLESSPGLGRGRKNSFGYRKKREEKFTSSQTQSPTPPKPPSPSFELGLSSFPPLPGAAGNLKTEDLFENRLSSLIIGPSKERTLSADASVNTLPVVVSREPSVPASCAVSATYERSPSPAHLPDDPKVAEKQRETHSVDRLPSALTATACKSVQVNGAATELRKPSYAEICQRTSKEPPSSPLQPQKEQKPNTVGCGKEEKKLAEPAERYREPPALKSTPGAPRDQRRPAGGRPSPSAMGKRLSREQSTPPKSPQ
UniProt Q9NSK0: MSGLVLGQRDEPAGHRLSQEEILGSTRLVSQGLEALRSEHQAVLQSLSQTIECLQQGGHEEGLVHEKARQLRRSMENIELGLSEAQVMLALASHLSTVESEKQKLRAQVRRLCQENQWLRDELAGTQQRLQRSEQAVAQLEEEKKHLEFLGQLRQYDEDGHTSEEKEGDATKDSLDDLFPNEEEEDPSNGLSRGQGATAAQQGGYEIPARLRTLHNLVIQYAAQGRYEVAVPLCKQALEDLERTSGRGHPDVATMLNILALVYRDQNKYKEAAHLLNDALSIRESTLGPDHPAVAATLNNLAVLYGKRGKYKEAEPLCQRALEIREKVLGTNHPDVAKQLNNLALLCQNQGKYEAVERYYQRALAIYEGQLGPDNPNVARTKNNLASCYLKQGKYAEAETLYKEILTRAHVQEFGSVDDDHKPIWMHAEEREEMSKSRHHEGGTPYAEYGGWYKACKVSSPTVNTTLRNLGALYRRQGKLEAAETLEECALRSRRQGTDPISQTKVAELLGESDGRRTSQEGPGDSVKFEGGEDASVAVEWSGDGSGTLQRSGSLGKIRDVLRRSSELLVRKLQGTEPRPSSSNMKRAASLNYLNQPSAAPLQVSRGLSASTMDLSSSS
UniProt O15523: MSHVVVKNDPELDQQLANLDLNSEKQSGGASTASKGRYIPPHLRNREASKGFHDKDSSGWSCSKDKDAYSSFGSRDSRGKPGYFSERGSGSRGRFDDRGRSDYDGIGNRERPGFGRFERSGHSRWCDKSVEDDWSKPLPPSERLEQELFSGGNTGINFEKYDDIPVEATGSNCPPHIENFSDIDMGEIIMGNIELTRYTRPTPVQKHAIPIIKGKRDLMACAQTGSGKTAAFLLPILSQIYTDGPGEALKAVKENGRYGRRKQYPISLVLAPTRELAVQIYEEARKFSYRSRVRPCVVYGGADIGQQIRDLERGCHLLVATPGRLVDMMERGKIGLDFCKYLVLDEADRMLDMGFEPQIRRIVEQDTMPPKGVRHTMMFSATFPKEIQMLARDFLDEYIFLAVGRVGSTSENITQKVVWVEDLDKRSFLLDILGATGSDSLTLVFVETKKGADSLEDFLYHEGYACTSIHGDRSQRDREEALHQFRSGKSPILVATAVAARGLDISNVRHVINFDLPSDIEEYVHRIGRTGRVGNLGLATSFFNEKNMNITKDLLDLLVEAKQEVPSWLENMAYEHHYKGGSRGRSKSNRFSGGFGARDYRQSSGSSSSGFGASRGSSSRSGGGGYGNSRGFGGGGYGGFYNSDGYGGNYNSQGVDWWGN
UniProt O75822: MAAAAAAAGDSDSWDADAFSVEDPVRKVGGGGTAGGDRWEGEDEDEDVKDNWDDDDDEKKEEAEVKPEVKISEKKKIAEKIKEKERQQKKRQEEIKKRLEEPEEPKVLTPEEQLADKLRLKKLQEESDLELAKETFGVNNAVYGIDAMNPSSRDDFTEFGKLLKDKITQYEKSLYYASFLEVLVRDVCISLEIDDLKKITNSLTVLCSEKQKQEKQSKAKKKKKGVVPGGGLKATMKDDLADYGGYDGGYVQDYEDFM

B1: GIGYF2 (protein, UniProt Q6Y7W6 1-1299)
chain: MAAETQTLNFGPEWLRALSSGGSITSPPLSPALPKYKLADYRYGREEMLALFLKDNKIPSDLLDKEFLPILQEEPLPPLALVPFTEEEQRNFSMSVNSAAVLRLTGRGGGGTVVGAPRGRSSSRGRGRGRGECGFYQRSFDEVEGVFGRGGGREMHRSQSWEERGDRRFEKPGRKDVGRPNFEEGGPTSVGRKHEFIRSESENWRIFREEQNGEDEDGGWRLAGSRRDGERWRPHSPDGPRSAGWREHMERRRRFEFDFRDRDDERGYRRVRSGSGSIDDDRDSLPEWCLEDAEEEMGTFDSSGAFLSLKKVQKEPIPEEQEMDFRPVDEGEECSDSEGSHNEEAKEPDKTNKKEGEKTDRVGVEASEETPQTSSSSARPGTPSDHQSQEASQFERKDEPKTEQTEKAEEETRMENSLPAKVPSRGDEMVADVQQPLSQIPSDTASPLLILPPPVPNPSPTLRPVETPVVGAPGMGSVSTEPDDEEGLKHLEQQAEKMVAYLQDSALDDERLASKLQEHRAKGVSIPLMHEAMQKWYYKDPQGEIQGPFNNQEMAEWFQAGYFTMSLLVKRACDESFQPLGDIMKMWGRVPFSPGPAPPPHMGELDQERLTRQQELTALYQMQHLQYQQFLIQQQYAQVLAQQQKAALSSQQQQQLALLLQQFQTLKMRISDQNIIPSVTRSVSVPDTGSIWELQPTASQPTVWEGGSVWDLPLDTTTPGPALEQLQQLEKAKAAKLEQERREAEMRAKREEEERKRQEELRRQQEEILRRQQEEERKRREEEELARRKQEEALRRQREQEIALRRQREEEERQQQEEALRRLEERRREEEERRKQEELLRKQEEEAAKWAREEEEAQRRLEENRLRMEEEAARLRHEEEERKRKELEVQRQKELMRQRQQQQEALRRLQQQQQQQQLAQMKLPSSSTWGQQSNTTACQSQATLSLAEIQKLEEERERQLREEQRRQQRELMKALQQQQQQQQQKLSGWGNVSKPSGTTKSLLEIQQEEARQMQKQQQQQQQHQQPNRARNNTHSNLHTSIGNSVWGSINTGPPNQWASDLVSSIWSNADTKNSNMGFWDDAVKEVGPRNSTNKNKNNASLSKSVGVSNRQNKKVEEEEKLLKLFQGVNKAQDGFTQWCEQMLHALNTANNLDVPTFVSFLKEVESPYEVHDYIRAYLGDTSEAKEFAKQFLERRAKQKANQQRQQQQLPQQQQQQPPQQPPQQPQQQDSVWGMNHSTLHSVFQTNQSNNQQSNFEAVQSGKKKKKQKMVRADPSLLGFSVNASSERLNMGEIETLDDY
B2: PATL1 (protein, UniProt Q86TB9 1-770)
chain: MFRYESLEDCPLDEDEDAFQGLGEEDEEIDQFNDDTFGSGAVDDDWQEAHERLAELEEKLPVAVNEQTGNGERDEMDLLGDHEENLAERLSKMVIENELEDPAIMRAVQTRPVLQPQPGSLNSSIWDGSEVLRRIRGPLLAQEMPTVSVLEYALPQRPPQGPEDDRDLSERALPRRSTSPIIGSPPVRAVPIGTPPKQMAVPSFTQQILCPKPVHVRPPMPPRYPAPYGERMSPNQLCSVPNSSLLGHPFPPSVPPVLSPLQRAQLLGGAQLQPGRMSPSQFARVPGFVGSPLAAMNPKLLQGRVGQMLPPAPGFRAFFSAPPSATPPPQQHPPGPGPHLQNLRSQAPMFRPDTTHLHPQHRRLLHQRQQQNRSQHRNLNGAGDRGSHRSSHQDHLRKDPYANLMLQREKDWVSKIQMMQLQSTDPYLDDFYYQNYFEKLEKLSAAEEIQGDGPKKERTKLITPQVAKLEHAYKPVQFEGSLGKLTVSSVNNPRKMIDAVVTSRSEDDETKEKQVRDKRRKTLVIIEKTYSLLLDVEDYERRYLLSLEEERPALMDDRKHKICSMYDNLRGKLPGQERPSDDHFVQIMCIRKGKRMVARILPFLSTEQAADILMTTARNLPFLIKKDAQDEVLPCLLSPFSLLLYHLPSVSITSLLRQLMNLPQSAATPALSNPHLTAVLQNKFGLSLLLILLSRGEDLQSSDPATESTQNNQWTEVMFMATRELLRIPQAALAKPISIPTNLVSLFSRYVDRQKLNLLETKLQLVQGIR
B3: PDAP1 (protein, UniProt Q13442 1-181)
chain: MPKGGRKGGHKGRARQYTSPEEIDAQLQAEKQKAREEEEQKEGGDGAAGDPKKEKKSLDSDESEDEEDDYQQKRKGVEGLIDIENPNRVAQTTKKVTQLDLDGPKELSRREREEIEKQKAKERYMKMHLAGKTEQAKADLARLAIIRKQREEAARKKEEERKAKDDATLSGKRMQSLSLNK
B4: TIA1 (protein, UniProt P31483 1-386)
chain: MEDEMPKTLYVGNLSRDVTEALILQLFSQIGPCKNCKMIMDTAGNDPYCFVEFHEHRHAAAALAAMNGRKIMGKEVKVNWATTPSSQKKDTSSSTVVSTQRSQDHFHVFVGDLSPEITTEDIKAAFAPFGRISDARVVKDMATGKSKGYGFVSFFNKWDAENAIQQMGGQWLGGRQIRTNWATRKPPAPKSTYESNTKQLSYDEVVNQSSPSNCTVYCGGVTSGLTEQLMRQTFSPFGQIMEIRVFPDKGYSFVRFNSHESAAHAIVSVNGTTIEGHVVKCYWGKETLDMINPVQQQNQIGYPQPYGQWGQWYGNAQQIGQYMPNGWQVPAYGMYGQAWNQQGFNQTQSSAPWMGPNYGVQPPQGQNGSMLPNQPSGYRVAGYETQ
B5: DCP1B (protein, UniProt Q8IZD4 1-617)
chain: MAAVAAGGLVGKGRDISLAALQRHDPYINRIVDVASQVALYTFGHRANEWEKTDVEGTLFVYTRSASPKHGFTIMNRLSMENRTEPITKDLDFQLQDPFLLYRNARLSIYGIWFYDKEECQRIAELMKNLTQYEQLKAHQGTGAGISPVILNSGEGKEVDILRMLIKAKDEYTKCKTCSEPKKITSSSAIYDNPNLIKPIPVKPSENQQQRIPQPNQTLDPEPQHLSLTALFGKQDKATCQETVEPPQTLHQQQQQQQQQQEKLPIRQGVVRSLSYEEPRRHSPPIEKQLCPAIQKLMVRSADLHPLSELPENRPCENGSTHSAGEFFTGPVQPGSPHNIGTSRGVQNASRTQNLFEKLQSTPGAANKCDPSTPAPASSAALNRSRAPTSVTPVAPGKGLAQPPQAYFNGSLPPQTVGHQAHGREQSTLPRQTLPISGSQTGSSGVISPQELLKKLQIVQQEQQLHASNRPALAAKFPVLAQSSGTGKPLESWINKTPNTEQQTPLFQVISPQRIPATAAPSLLMSPMVFAQPTSVPPKERESGLLPVGGQEPPAAATSLLLPIQSPEPSVITSSPLTKLQLQEALLYLIQNDDNFLNIIYEAYLFSMTQAAMKKTM

molecular target: KIF5A-TurboID (human) (UniProt Q12840); assay: proximity labelling

binding, binds:
EIF3G (from UniProt O75821 1-320)
KLC2 (from UniProt Q9H0B6 1-622)
GIGYF1 (from UniProt O75420 1-1035)
TNRC6B (from UniProt Q9UPQ9 1-1833)
LARP4B (from UniProt Q92615 1-738)
KLC4 (from UniProt Q9NSK0 1-619)
KLC1 (from UniProt Q07866 1-573)
EIF4H (from UniProt Q15056 1-248)
EIF3H (from UniProt O15372 1-352)
TNRC6C (from UniProt Q9HCJ0 1-1936)
TNRC6A (from UniProt Q8NDV7 1-1962)
G3BP1 (from UniProt Q13283 1-466)
DDX3Y (from UniProt O15523 1-660)
EIF3J (from UniProt O75822 1-258)
SRSF9 (from UniProt Q13242 1-221)
B1
B2
B3
B4
B5

These are yes or no findings as the source states them, for the method shown. Binding seen in cells or lysates may run through a third protein. These calls come from enrichment with a bait or labelling near it, and not all partners need be listed.
